# Percent effect of library compounds

The chains behind the UniProt entries cited, without tags or fusion partners.
UniProt I6X8D2, whole entry: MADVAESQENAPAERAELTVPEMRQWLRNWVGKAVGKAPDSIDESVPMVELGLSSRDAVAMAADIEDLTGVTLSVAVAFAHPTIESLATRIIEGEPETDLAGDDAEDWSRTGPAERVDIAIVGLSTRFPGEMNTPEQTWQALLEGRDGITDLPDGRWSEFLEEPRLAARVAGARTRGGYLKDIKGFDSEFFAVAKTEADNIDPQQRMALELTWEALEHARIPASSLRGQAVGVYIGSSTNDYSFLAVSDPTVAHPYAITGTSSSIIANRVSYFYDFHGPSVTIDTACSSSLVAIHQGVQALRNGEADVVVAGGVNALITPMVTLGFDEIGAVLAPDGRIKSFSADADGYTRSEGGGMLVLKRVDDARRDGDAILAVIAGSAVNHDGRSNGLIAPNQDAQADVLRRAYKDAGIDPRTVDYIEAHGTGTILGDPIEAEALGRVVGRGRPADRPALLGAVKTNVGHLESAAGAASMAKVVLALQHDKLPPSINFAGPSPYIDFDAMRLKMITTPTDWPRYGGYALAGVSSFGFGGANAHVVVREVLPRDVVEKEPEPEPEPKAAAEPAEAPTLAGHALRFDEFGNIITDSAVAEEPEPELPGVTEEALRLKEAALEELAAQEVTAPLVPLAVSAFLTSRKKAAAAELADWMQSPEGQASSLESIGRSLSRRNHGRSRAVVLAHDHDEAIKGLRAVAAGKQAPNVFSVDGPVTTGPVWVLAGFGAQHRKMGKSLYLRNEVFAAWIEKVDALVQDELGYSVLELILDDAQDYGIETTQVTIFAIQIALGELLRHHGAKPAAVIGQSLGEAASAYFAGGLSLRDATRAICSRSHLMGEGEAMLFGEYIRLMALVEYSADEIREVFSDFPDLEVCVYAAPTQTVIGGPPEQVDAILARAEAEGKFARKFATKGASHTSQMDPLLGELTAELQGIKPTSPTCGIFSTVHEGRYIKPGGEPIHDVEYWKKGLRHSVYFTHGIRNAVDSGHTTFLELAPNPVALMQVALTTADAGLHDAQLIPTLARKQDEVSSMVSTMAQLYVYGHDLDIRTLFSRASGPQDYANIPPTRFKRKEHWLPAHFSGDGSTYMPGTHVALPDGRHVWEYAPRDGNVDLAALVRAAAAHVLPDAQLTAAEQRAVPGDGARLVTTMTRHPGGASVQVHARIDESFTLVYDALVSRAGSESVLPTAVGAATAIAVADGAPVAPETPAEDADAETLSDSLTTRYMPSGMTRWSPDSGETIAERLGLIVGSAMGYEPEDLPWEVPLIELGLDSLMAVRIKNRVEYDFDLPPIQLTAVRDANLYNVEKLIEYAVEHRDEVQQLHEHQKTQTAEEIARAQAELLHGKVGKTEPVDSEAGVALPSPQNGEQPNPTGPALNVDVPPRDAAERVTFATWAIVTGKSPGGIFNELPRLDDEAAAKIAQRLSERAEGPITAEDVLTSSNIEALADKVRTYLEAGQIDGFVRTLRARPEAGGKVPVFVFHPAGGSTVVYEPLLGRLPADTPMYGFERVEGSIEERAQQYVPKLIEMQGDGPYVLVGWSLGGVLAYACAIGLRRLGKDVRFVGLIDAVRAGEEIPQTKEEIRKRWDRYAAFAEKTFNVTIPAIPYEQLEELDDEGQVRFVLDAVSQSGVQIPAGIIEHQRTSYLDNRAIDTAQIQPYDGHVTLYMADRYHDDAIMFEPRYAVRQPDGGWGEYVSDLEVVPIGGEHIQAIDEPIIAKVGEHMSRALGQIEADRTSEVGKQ

The values are deposited in ChEMBL (CHEMBL3988442, “University of Dundee, Small-Polar-MMV Screening Library” (2021)).

Each number is a percent effect as filed.
The controls that fix the scale are not given in the record; negative values are as filed.
This is an unselected part of the compounds tested.

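Enzyme assay of the thioesterase domain of polyketide synthase 13; the read-out is not stated. Target: Polyketide synthase Pks13, Mycobacterium tuberculosis (UniProt I6X8D2). Compounds at 30 µM. The record gives no direction; the compounds picked for IC50 retests had high values, so higher reads as stronger inhibition. Size under these conditions: about 67,000 compounds, about 300 of them at 50% or above in at least one test.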

Compound	effect
CC(O)CN1CCC(CNCc2ccccc2C(F)(F)F)CC1 (stereo not drawn)	-35.2
COc1ccc(-c2cc[nH]n2)cc1CNC1CCCC1	-28.4
c1cncc(COCC2C[C@@H]3OCCN(Cc4cccnc4)[C@H]3C2)c1 (stereo partly drawn)	8.31
Cc1ccc(CNCc2nnc3n2CCCC3C(F)(F)F)s1 (stereo not drawn)	-17.19
CC(C)c1nnc2n1CCN(C(=O)c1ccc3c(c1)NC(=O)CO3)C2	-31.75
OCC1CCCN1c1cc(NCc2cccnc2)ncn1 (stereo not drawn)	-26.35
CS(=O)(=O)N[C@@H]1CN(Cc2ccc3ccccc3c2)C[C@H]1O	-9.082
CCc1nc(CN2CCCC2c2c(C)nn(C)c2OC)no1 (stereo not drawn)	-22.81
CS(=O)(=O)N1C[C@@H]2CC[C@H](C1)N(Cc1ccc3nsnc3c1)C2	11.63
Cn1c(CN2CCCC(Cn3cncn3)C2)nc2ccccc21 (stereo not drawn)	-18.78
O=C(NC1CCCc2nc(N3CCCCC3)ncc21)C1CCCC1 (stereo not drawn)	-0.3802
Cc1nc(C)n(CC2CCCN2CCOc2ccc(F)cc2)n1 (stereo not drawn)	-4.098
CC(c1ccon1)N(C)C(=O)C1CCN(C2CCCCC2)CC1 (stereo not drawn)	8.588
COc1ccc(Cn2cc(C(=O)N(C)CCN(C)C)nn2)cc1	-28
CC(=O)c1cccc(C(=O)N2C[C@@H](CN3CCCCCC3)[C@@H](CO)C2)c1	-17.76
CN(Cc1cc2n(n1)CCCN(C(=O)N1CCCC1)C2)Cc1nccs1	-43.71
Cc1noc(C)c1C(C)NC(=O)N1CCN(c2cccs2)CC1 (stereo not drawn)	-8.422
CCC1=N[C@@]2(CC[C@@H]3CN(S(=O)(=O)CC(C)C)C[C@@H]32)C(=O)N1CC	-33.13
O=C(c1cccc(O)c1)N1CCC2(CCN2c2ncccn2)C1 (stereo not drawn)	0.994
O=C(c1cc[nH]n1)N1CCc2c(nc(N3CCCCC3)[nH]c2=O)C1	-5.342
CC(NC(=O)NCCCn1ccnc1)c1ccc2c(c1)OCCCO2 (stereo not drawn)	-22.97
CN(C)C(=O)c1nc2c(s1)CCCN2Cc1ccccc1	-24.35
O=C(N1CCCC1)N1CCCC(c2nccn2Cc2ccncc2)C1 (stereo not drawn)	-35.47
CC(C)c1[nH]c2ncccc2c1CN1CCC(O)CC1	-12.48
Cn1nc2c(cc1=O)CN(CC(=O)Nc1nccs1)CC2	2.981
CN(C)c1ccc(CC(=O)N[C@@H]2CCNC[C@H]2O)cc1	-7.557
CC(=O)NC1CCCN(C(=O)NCc2ccc(-c3ccn[nH]3)cc2)C1 (stereo not drawn)	-5.892
COC(=O)[C@H](C)NC(=O)COc1nn(C)c2nc(C)cc(C)c12	-13.04
Cc1nc(C2CCCN2CCCn2c(=O)oc3ccccc32)no1 (stereo not drawn)	10.73
CCOCC1CN(C(=O)COc2ccccc2)Cc2cn(C)nc21 (stereo not drawn)	-19.6
CCc1ncc2c(n1)CN(CC(=O)Nc1nnc(C)s1)CC2	2.17
CCN(CC)S(=O)(=O)N1CCc2nc(C3CCNCC3)ncc2C1	-2.736
CCc1nnc(CNC(=O)CCCN2CCCCC2)s1	-23.1
COc1cc(C(=O)N2CCCC(n3ccnc3)C2)cc2c1OCCO2 (stereo not drawn)	-40.69
CCOCC1CN(Cc2ccoc2)Cc2ncn(CC3CC3)c21 (stereo not drawn)	-5.961
O=C(CCc1ccco1)N1CCCN(Cc2cscn2)CC1	5.409
CC(C)c1ncc(Cl)c(C(=O)N2CCCN3CCCC3C2)n1 (stereo not drawn)	-34.07
Cc1cc(Br)oc1C(=O)N1CCCN(CC(N)=O)CC1	3.712
CC(Cc1ccc(Cl)cc1)N(C)C(=O)NCCS(C)(=O)=O (stereo not drawn)	-13.17
Cc1noc(C)c1C(=O)Nc1ccc2ncn(CC(C)C)c(=O)c2c1	39.95
CCNc1ncc(C(=O)NC(CC)c2ccnn2C)cn1 (stereo not drawn)	5.97
CN1CCCCC1Cc1nc2c(cc1C(N)=O)CCC2 (stereo not drawn)	-7.793
CCN(Cc1noc(CC(C)C)n1)Cc1ccccc1OCC(=O)O	-25.14
O=C(CC1CSc2nccc(=O)n21)NCc1cc(-c2ccco2)on1 (stereo not drawn)	7.272
CCc1nnc(CN(C)Cc2nc(-c3ccccc3Cl)oc2C)o1	-22.55
O=C(NCCn1nc2ccccn2c1=O)c1scnc1Cl	-12.51

For reference, 3 entries once more:

With Cn1nc2c(cc1=O)CN(CC(=O)Nc1nccs1)CC2 the screen gave 2.981%.
With COC(=O)[C@H](C)NC(=O)COc1nn(C)c2nc(C)cc(C)c12 the screen gave -13.04%.
With O=C(c1cccc(O)c1)N1CCC2(CCN2c2ncccn2)C1 (stereo not drawn) the screen gave 0.994%.